According to US9340556B2, “Antibacterial compounds” (GLAXO GROUP LIMITED, priority 2011, dated 2016):
Some results were stated once for a whole list of compounds, not compound by compound. At least one compound was matched to its structure with a doubt left.

System: Gram-negative organisms selected from Escherichia coli, Pseudomonas aeruginosa, Proteus mirabilis, Enterobacter cloacae, Enterobacter aerogenes, Klebsiella …
Experiment: Antimicrobial activity assay: whole-cell broth microdilution MIC (CLSI M7-A7)
Type: cell-based
Conditions: for at least one strain of one organism listed, serial two-fold dilutions 0.064 to 64 μg/ml, in the presence of 20 uM human apo-Transferrin, tested in at least one exemplified salt or free base form
Method: Antimicrobial Activity Assay
Whole-cell antimicrobial activity was determined by broth microdilution using the Clinical and Laboratory Standards Institute (CLSI) recommended procedure, Document M7-A7, “Methods for Dilution Susceptibility Tests for Bacteria that Grow Aerobically”. In some cases, broth microdilution MICs were determined using IsoSensitest broth (Oxoid) in place of CLSI recommended cation adjusted Mueller-Hinton broth. The compounds were tested in serial two-fold dilutions ranging from 0.064 to 64 μg/ml in the presence of 20 uM human apo-Transferrin (Sigma T-1147).
Compounds were evaluated against Gram-negative organisms selected from Escherichia coli, Pseudomonas aeruginosa, Proteus mirabilis, Enterobacter cloacae, Enterobacter aerogenes, Klebsiella pneumoniae, Stenotrophomonas maltophilia, Acinetobacter baumanii, Serratia marascens, Citrobacter freundii, and Klebsiella oxytoca.
The minimum inhibitory concentration (MIC) was determined as the lowest concentration of compound that inhibited visible growth. A mirror reader was used to assist in determining the MIC endpoint.
Each of the listed Examples 1 to 56 and 59 to 61 identified in the present application, were tested in at least one exemplified salt or free base form.

In the case of `CCn1cc(C(=O)NCC[N+]2(CC3=C(C(=O)[O-])N4C(=O)[C@@H](NC(=O)/C(=N\O[C@@H](CC(=O)[O-])C(=O)[O-])c5csc(N)n5)[C@H]4SC3)CCCC2)c(=O)c2c(O)c(O)ccc21.[Na+].[Na+]` [Example 47, (6R,7R)-7-((Z)-2-(2-aminothiazol-4-yl)-2-(((S)-1,2-dicarboxyethoxy)imino)acetamido)-3-((1-(2-(1-ethyl-5,6-dihydroxy-4-oxo-1,4-dihydroquinoline-3-carboxamido)ethyl)pyrrolidin-1-ium-1-yl)methyl)-8-oxo-5-thia-1-azabicyclo[4.2.0]oct-2-ene-2-carboxylate, 2 Sodium salt], the “MIC (minimum inhibitory concentration)” value is reported as no more than 8 µg/mL.
